Data source: PubChem BioAssay AID504784 (Drosophila RNAi Screening Center, 2011)

Screen: 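Fly genes whose silencing alters how much lipid cells keep in droplets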 (primary screen)
Cell system: Drosophila Kc167 embryonic cells
Knock-down reagent: long dsRNA against Drosophila genes, about 250 ng dsRNA per well
Time to read-out: 4 days
Challenge: cells fed 400 µM oleic acid bound to BSA
Measured: 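Cells imaged and segmented; ratio of lipid droplet area to nuclear area, log-transformed, then normalised as a B-score over the screen; higher means more stored lipid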
Reading the numbers: droplet/nuclear area B-score: higher = more stored lipid (overstorage)
The deposit covers about 17,000 reagents; this is a random part of those with a known target gene and a result. 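Each column is one replicate's B-score; the combined score over replicates was not deposited, so single values may mislead.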 A plus sign joins genes that one reagent is predicted to hit. Not all columns of the deposit are shown. No sequences are given here.

Hr39 [DRSC03346]
- droplet/nuclear area B-score, replicate 1: -0.121

Fip1 [DRSC12147]
- droplet/nuclear area B-score, replicate 1: -0.82

CG15594 [DRSC12280]
- droplet/nuclear area B-score, replicate 1: 1.36

CG30192 [DRSC03977]
- droplet/nuclear area B-score, replicate 1: -0.304

CG6678 [DRSC16092]
- droplet/nuclear area B-score, replicate 1: 0.886

CG32036 [DRSC10362]
- droplet/nuclear area B-score, replicate 1: -0.565

Cisd2 [DRSC14904]
- droplet/nuclear area B-score, replicate 1: -0.648

chinmo [DRSC00292]
- droplet/nuclear area B-score, replicate 1: 2.46

chinmo [DRSC00485]
- droplet/nuclear area B-score, replicate 1: 4.77

chinmo [DRSC00509]
- droplet/nuclear area B-score, replicate 1: 4.67

CG14339 [DRSC00369]
- droplet/nuclear area B-score, replicate 1: 0.128

CG9919 [DRSC20219]
- droplet/nuclear area B-score, replicate 1: 2.87

Nelf-E [DRSC10567]
- droplet/nuclear area B-score, replicate 1: 0.107

Slimp [DRSC13656]
- droplet/nuclear area B-score, replicate 1: 0.981

CG13077 [DRSC02181]
- droplet/nuclear area B-score, replicate 1: -0.702

ND-B14 [DRSC07029]
- droplet/nuclear area B-score, replicate 1: -0.655

Osi17 [DRSC12284]
- droplet/nuclear area B-score, replicate 1: -0.108

Obp50a [DRSC22152]
- droplet/nuclear area B-score, replicate 1: 0.743

CG30431 [DRSC04902]
- droplet/nuclear area B-score, replicate 1: -0.111

CG30431 [DRSC04904]
- droplet/nuclear area B-score, replicate 1: -1.02

Phf7 [DRSC20692]
- droplet/nuclear area B-score, replicate 1: -0.54

CG17145 [DRSC10247]
- droplet/nuclear area B-score, replicate 1: -1.52

CG43367 + CG32252 (retired record) [DRSC21715]
- droplet/nuclear area B-score, replicate 1: 1.62

St1 [DRSC04504]
- droplet/nuclear area B-score, replicate 1: 0.0764

Oatp30B [DRSC02727]
- droplet/nuclear area B-score, replicate 1: 0.0492

CG9166 [DRSC07842]
- droplet/nuclear area B-score, replicate 1: -0.499

RpL5 [DRSC03801]
- droplet/nuclear area B-score, replicate 1: -1.17

Taken from above:
Under “droplet/nuclear area B-score, replicate 1”, Fip1 [DRSC12147] reads -0.82
Under “droplet/nuclear area B-score, replicate 1”, CG30431 [DRSC04904] reads -1.02
Result of Cisd2 [DRSC14904] in “droplet/nuclear area B-score, replicate 1”: -0.648
Value of RpL5 [DRSC03801] under “droplet/nuclear area B-score, replicate 1”: -1.17
